Assay results taken from the supplement of paper PMC10849652.
The list shows a part of the results.

Sequences of proteins named here, by UniProt entry; tags and fusion partners are left off. A change or cut given only in a name is not applied to a line headed by its entry.
UniProt Q9UHV7: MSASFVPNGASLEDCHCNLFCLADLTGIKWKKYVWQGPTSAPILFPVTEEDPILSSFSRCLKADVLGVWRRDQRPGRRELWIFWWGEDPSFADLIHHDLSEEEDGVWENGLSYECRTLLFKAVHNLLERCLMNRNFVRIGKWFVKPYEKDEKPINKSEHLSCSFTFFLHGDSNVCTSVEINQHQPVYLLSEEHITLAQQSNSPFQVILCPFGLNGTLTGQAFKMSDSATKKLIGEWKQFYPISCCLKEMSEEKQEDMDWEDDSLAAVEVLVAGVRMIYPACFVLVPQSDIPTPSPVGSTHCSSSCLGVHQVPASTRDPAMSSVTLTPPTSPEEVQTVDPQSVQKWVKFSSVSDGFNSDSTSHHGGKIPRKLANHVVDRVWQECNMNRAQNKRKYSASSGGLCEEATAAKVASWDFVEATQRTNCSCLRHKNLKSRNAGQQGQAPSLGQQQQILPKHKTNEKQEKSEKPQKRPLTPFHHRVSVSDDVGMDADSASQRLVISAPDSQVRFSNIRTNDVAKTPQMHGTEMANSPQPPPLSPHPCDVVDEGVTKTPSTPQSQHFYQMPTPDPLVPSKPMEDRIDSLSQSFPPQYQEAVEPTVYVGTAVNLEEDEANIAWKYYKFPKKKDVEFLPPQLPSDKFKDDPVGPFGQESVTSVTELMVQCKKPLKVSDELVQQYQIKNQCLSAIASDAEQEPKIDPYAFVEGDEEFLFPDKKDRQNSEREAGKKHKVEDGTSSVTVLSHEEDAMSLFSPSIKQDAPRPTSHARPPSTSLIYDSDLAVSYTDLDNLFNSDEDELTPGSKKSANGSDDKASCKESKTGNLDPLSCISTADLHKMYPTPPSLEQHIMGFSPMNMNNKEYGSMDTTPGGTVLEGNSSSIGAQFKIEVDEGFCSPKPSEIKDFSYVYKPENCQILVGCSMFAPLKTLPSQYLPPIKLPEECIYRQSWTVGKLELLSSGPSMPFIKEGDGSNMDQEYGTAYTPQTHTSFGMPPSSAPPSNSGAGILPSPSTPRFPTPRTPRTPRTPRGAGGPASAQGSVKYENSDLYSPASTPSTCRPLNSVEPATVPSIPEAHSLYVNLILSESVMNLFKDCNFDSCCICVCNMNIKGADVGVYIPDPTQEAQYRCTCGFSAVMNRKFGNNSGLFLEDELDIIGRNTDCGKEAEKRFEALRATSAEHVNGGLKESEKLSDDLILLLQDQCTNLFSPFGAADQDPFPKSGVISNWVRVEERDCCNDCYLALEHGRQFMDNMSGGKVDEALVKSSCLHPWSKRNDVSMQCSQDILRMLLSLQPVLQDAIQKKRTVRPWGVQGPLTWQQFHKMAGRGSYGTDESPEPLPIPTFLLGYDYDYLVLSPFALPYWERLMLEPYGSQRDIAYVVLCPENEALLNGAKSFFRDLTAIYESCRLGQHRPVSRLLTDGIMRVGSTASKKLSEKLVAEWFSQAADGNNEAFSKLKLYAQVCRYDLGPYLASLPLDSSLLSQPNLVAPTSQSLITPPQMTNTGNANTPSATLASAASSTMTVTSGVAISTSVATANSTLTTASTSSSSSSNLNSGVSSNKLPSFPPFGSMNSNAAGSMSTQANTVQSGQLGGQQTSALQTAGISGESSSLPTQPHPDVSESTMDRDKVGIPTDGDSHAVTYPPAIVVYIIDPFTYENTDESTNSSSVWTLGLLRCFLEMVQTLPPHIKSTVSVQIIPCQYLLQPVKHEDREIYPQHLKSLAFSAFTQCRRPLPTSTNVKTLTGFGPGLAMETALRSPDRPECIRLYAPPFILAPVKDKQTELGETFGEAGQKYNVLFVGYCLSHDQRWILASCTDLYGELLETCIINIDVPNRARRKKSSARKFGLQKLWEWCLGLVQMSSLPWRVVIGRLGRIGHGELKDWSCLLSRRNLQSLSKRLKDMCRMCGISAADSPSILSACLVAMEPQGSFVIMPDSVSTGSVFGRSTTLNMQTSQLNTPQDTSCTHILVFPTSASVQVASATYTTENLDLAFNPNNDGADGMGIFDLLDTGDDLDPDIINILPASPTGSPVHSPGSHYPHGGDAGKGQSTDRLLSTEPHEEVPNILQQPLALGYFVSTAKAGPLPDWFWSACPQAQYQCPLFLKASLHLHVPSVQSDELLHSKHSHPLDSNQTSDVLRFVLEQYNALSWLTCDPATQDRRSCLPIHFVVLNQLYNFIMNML
UniProt Q13503: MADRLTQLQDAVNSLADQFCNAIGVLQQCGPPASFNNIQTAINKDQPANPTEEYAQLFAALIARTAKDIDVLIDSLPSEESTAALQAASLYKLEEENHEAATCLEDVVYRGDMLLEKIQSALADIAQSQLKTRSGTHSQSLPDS
UniProt Q9Y3C7: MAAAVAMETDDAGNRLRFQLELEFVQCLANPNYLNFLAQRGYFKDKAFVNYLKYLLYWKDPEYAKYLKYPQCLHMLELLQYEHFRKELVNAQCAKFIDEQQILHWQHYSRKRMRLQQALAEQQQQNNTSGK
UniProt Q9ULC4: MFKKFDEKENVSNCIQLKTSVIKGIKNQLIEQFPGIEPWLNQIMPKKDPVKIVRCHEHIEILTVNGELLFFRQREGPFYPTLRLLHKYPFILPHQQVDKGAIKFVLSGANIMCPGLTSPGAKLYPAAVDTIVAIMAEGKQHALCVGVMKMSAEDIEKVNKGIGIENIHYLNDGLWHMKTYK
UniProt Q96HR3: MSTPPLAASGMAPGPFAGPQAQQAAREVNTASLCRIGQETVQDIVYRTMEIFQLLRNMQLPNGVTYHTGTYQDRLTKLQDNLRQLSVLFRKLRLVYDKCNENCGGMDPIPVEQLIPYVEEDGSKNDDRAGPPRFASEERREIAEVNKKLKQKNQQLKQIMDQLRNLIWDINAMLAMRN
UniProt Q9BV79: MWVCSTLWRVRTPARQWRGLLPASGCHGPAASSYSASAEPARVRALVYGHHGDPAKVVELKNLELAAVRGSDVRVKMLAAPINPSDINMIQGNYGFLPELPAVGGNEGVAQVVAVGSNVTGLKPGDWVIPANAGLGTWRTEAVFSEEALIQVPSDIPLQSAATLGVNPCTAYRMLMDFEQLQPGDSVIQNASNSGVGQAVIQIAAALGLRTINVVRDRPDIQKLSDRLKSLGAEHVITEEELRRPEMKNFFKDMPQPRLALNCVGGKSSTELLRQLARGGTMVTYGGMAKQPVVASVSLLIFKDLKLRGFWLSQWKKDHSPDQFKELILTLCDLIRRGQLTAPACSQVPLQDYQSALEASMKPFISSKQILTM
UniProt Q9H8H3: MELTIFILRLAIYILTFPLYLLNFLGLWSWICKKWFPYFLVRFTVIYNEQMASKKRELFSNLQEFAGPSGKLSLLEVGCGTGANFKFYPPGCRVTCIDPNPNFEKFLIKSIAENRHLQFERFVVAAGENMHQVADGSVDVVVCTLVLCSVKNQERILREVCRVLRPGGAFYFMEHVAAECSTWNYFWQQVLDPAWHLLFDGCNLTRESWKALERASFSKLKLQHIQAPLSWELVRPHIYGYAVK
UniProt P25205: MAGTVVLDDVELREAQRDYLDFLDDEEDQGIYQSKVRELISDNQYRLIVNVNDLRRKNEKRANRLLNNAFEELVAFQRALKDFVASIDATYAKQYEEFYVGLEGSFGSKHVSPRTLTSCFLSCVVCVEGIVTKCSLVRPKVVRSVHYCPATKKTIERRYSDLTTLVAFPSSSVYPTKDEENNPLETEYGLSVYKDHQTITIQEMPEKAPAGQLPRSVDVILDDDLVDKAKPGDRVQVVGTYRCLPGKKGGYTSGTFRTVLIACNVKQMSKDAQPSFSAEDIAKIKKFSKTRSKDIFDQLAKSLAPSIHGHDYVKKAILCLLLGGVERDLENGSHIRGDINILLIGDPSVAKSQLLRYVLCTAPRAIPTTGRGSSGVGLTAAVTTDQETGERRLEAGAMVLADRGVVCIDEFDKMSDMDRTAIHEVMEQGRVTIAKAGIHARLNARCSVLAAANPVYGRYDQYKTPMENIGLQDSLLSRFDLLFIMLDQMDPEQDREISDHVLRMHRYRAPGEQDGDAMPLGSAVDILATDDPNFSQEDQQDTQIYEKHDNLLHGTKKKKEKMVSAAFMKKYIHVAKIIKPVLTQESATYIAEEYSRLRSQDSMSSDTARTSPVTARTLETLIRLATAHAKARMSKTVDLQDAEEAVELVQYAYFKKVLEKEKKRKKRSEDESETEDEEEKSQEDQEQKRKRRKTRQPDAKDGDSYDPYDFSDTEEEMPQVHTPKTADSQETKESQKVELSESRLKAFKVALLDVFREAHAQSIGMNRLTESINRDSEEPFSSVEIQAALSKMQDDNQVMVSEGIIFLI
UniProt P49736, whole entry, looked up: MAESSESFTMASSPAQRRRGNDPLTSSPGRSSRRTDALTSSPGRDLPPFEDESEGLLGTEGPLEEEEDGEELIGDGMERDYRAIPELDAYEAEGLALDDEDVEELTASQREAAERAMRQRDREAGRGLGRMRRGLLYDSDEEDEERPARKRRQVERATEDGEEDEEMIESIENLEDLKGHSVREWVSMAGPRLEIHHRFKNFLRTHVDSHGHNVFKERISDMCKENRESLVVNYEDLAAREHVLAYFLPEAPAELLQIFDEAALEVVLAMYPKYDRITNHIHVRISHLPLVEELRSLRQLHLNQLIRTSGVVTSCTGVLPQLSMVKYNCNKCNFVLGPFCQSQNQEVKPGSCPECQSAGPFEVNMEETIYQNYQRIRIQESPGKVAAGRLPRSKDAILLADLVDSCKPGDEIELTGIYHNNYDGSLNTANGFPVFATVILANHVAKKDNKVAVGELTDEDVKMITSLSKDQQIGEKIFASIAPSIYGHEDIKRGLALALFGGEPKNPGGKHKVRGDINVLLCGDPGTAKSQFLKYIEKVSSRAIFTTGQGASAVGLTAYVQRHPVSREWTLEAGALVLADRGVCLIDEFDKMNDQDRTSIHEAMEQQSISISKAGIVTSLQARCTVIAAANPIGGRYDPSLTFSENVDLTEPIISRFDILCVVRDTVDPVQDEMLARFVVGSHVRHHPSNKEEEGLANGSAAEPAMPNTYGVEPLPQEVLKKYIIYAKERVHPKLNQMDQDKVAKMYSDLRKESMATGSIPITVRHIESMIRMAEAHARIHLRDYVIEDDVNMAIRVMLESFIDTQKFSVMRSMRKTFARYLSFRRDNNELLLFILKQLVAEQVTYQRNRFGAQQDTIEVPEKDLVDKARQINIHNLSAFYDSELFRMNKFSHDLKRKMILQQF
UniProt Q9UQ53: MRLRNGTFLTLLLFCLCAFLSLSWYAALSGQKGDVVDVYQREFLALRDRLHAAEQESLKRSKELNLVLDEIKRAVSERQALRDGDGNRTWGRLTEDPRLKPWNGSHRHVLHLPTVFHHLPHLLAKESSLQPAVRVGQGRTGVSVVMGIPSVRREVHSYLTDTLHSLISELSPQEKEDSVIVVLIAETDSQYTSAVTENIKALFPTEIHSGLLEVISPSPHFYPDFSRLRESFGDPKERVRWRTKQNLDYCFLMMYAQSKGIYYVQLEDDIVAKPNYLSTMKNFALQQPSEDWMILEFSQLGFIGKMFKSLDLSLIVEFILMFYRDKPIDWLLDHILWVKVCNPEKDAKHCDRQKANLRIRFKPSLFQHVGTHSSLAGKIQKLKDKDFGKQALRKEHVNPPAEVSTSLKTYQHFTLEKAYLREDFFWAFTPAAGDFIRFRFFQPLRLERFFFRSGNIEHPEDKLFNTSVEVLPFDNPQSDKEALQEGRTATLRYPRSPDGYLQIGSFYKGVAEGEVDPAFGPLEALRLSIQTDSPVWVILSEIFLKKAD
UniProt P61244, whole entry, looked up: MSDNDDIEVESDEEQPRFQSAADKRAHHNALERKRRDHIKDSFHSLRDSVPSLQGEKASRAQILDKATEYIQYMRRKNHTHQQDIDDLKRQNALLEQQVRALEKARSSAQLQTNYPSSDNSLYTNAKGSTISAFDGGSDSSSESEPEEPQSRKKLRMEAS
UniProt Q09328: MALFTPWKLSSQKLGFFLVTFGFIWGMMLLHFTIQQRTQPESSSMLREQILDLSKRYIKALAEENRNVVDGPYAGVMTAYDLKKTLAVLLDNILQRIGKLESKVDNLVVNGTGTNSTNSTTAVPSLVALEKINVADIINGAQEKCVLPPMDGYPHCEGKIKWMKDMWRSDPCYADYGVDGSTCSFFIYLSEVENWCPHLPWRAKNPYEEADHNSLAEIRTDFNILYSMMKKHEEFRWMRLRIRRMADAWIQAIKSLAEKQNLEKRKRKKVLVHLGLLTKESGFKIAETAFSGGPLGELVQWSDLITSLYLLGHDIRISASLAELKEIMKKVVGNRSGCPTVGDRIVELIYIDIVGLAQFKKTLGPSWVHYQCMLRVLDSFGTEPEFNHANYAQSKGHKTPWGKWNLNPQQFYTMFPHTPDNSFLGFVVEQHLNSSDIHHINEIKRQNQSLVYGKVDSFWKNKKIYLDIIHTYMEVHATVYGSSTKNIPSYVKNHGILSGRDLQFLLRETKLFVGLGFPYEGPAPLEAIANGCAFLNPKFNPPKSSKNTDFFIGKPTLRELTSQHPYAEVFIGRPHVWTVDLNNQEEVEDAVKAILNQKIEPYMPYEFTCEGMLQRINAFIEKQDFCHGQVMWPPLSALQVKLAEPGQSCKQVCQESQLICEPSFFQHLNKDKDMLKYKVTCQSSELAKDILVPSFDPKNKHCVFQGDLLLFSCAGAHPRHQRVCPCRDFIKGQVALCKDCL

Compound: c1cn2cc(-c3ccc4cn[nH]c4c3)nc(Nc3ccc(N4CCOCC4)cc3)c2n1 [entospletinib]
Assay: log2 fold change, soluble protein after heating vs DMSO (PISA); higher = thermal stabilisation; K562 cells, 10 uM, 30 min; active = over 0.2 and 3.5 SD of the protein, either way, in both replicates (recomputed)
Method in brief: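 K562 cells (2×10^6 cells/mL) were treated with 10 μM compound for 30 min, and aliquots were heated for 3 min over 48°C-58°C. Pooled aliquots were extracted in PBS with 0.5% NP-40 at 4°C, and the supernatant after 21,000xg for 90 min was measured by TMTpro 16plex LC-MS/MS with channel sums equalised. Reported thermal stability, relative to control samples and from duplicates, is a log2 fold change.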

log2 fold change, inactive:
MED13 (UniProt Q9UHV7) -0.176
MED21 (UniProt Q13503) -0.004
MED31 (UniProt Q9Y3C7) -0.007
MCTS1 isoform 3 (UniProt Q9ULC4) -0.008
MED30 (UniProt Q96HR3) -0.013
MECR (UniProt Q9BV79) -0.008
METTL7A (UniProt Q9H8H3) -0.017
MCM3 isoform 2 (UniProt P25205) -0.023
MCM2 (UniProt P49736) -0.009
MEF2C isoform 5 (UniProt Q06413) 0.007
MCAM (UniProt P43121) -0.034
MCM6 (UniProt Q14566) -0.001
MCM7 (UniProt P33993) -0.01
METTL17 isoform 3 (UniProt Q9H7H0) -0.093
MED24 (UniProt O75448) -0.02
MGAT4B isoform 3 (UniProt Q9UQ53) 0.006
MAX (UniProt P61244) 0.025
MATR3 (UniProt P43243) 0.046
MGAT5 (UniProt Q09328) 0
MFSD14B (UniProt Q5SR56) -0.037
METTL26 (UniProt Q96S19) 0.028
MCRIP1 (UniProt I3L4Q0) -0.019
MEF2D (UniProt Q14814) 0.008

Fetched one by one from above:
log2 fold change, inactive:
MCM7 (UniProt P33993) -0.01
METTL17 isoform 3 (UniProt Q9H7H0) -0.093
